These are yes or no findings as the source states them, for the method shown. Some binding calls cover weakened binding; strength is not graded here.
Molecular target: Tsg101 UEV domain (residues 2-145), wild type, 15N-labeled (UniProt Q99816)
Assay: NMR intermolecular paramagnetic relaxation enhancement (PRE); Gd-DOTA-M8-SPy-tagged HECT (Lu-tagged as diamagnetic reference), 150 uM, mixed with 125 uM 15N-Tsg101 UEV; amide proton R2 difference; 50 mM Tris pH 7.4, 500 mM NaCl, 5% glycerol, 7% 2H2O; 300 K, 600 MHz; both purified

Amino acid sequences for entries named in this document (tags omitted). A change or cut given only in a name is not applied to a line headed by its entry. Chains listed by the source or under a name are the forms on record and can include a tag or linker. Residues count along the entry.
UniProt Q99816, residues 2-145: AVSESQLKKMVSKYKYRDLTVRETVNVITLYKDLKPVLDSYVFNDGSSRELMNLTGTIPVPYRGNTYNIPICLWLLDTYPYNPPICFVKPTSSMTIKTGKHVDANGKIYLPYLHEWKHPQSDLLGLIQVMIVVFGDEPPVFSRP
hNedd4-1 HECT N-lobe (520-780), null cysteine with F528C, tagged with lanthanide DOTA-M8-SPy at C528 (P46934-4, form named): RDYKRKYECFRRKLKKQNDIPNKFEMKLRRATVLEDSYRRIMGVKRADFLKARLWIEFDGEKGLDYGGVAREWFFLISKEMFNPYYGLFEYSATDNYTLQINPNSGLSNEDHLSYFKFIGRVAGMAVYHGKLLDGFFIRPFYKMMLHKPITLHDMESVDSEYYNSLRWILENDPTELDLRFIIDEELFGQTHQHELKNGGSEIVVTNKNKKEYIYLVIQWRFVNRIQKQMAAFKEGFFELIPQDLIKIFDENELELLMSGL
hNedd4-1 HECT N-lobe (520-780), null cysteine with S720C, tagged with lanthanide DOTA-M8-SPy at C720 (P46934-4, form named): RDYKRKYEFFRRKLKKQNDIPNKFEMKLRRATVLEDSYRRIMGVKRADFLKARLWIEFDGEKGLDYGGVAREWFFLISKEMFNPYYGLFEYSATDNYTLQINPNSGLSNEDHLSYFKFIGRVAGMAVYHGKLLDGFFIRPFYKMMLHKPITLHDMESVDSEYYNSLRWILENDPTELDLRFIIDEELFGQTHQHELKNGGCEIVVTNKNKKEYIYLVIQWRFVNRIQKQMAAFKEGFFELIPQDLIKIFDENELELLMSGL
hNedd4-1 HECT domain (520-900), single cysteine C867, tagged with lanthanide DOTA-M8-SPy at C867 (P46934-4, form named): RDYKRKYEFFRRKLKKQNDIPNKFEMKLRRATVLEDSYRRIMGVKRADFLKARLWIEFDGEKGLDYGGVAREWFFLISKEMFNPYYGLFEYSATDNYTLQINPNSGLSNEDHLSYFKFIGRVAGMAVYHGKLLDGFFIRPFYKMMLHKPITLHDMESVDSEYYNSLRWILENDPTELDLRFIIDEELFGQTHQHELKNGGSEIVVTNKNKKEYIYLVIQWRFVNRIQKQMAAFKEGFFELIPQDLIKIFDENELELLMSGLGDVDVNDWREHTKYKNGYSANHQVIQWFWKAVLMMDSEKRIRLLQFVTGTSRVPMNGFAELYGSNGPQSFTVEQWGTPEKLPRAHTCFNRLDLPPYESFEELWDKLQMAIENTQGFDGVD

binding | Substance
binds weakly | hNedd4-1 HECT N-lobe (520-780), null cysteine with F528C, tagged with lanthanide DOTA-M8-SPy at C528 (from UniProt P46934-4 520-780) (domain or fragment)
binds weakly | hNedd4-1 HECT N-lobe (520-780), null cysteine with S720C, tagged with lanthanide DOTA-M8-SPy at C720 (from UniProt P46934-4 520-780) (domain or fragment)
binds weakly | hNedd4-1 HECT domain (520-900), single cysteine C867, tagged with lanthanide DOTA-M8-SPy at C867 (from UniProt P46934-4 520-900) (domain or fragment)

From paper PMC9944984
